# Source: the supplement of paper PMC8728848
# The list shows a part of the results.
# B1: LlpA1 (Pseudomonas fluorescens), Q4KHC3 (protein)
# chain: MGSSHHHHHHSSGLVPRGSHMAWIRYDFTDNGSSVLPARYYMAPNQYLQSPNKRFKLLFQADGNLALYDGAQLAWVADQNTPFTNVSKGNKKDPMMVFMNYGFVLDDPLRGRIWSTTPSDPTMGSREDASLRAFTQVQDDGNIVTVDTIPHWYAPNGRVFTPAVGAAMIIGGTTELVPGQFYSAGEHSLVFQGDGNLVVYGPNSSVIWATYTQNKGGVRCVMQEDGNLVIYAANNGVVWQSGTGGHPGATIRLQANGSFTIVTERPVWARFGYTPTIKPPRVFYPDHKWKTGSYTWNNVF
# What was measured:
# Assay in all cases: glycan array binding signal (z-score within array); higher = stronger binding
# Settings in all cases: glycan notation: IUPAC condensed, linker removed
# [1] = target: Neu5Ac(a2-6)Gal(b1-4)GlcNAc(b1-2)Man(a1-6)[Gal(b1-4)GlcNAc(b1-2)Man(a1-3)]Man(b1-4)GlcNAc(b1-4)GlcNAc
# Method in brief: (§1)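 Glycan array data came from 3228 arrays in the Consortium for Functional Glycomics database, and only arrays with an available protein sequence were kept. Glycan names were put into IUPAC-condensed notation, and columns mapping to the same glycan were averaged. The binding signal is a within-array Z-score, averaged across arrays of one protein sequence run at different concentrations or buffers and across linkers. A negative Z-score can be read as non-binding.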
# [2] = target: Neu5Ac(a2-6)Gal(b1-4)GlcNAc(b1-2)Man(a1-6)[GlcNAc(b1-2)Man(a1-3)]Man(b1-4)GlcNAc(b1-4)GlcNAc
# Method in brief: as §1
# [3] = target: Neu5Ac(a2-6)Gal(b1-4)GlcNAc(b1-2)Man(a1-6)[Man(a1-3)]Man(b1-4)GlcNAc(b1-4)GlcNAc
# Method in brief: as §1
# [4] = target: Neu5Ac(a2-6)Gal(b1-4)GlcNAc(b1-2)[Neu5Ac(a2-6)Gal(b1-4)GlcNAc(b1-4)]Man(a1-3)[GlcNAc(b1-4)][Neu5Ac(a2-6)Gal(b1-4)GlcNAc(b1-2)[Neu5Ac(a2-6)Gal(b1-4)GlcNAc(b1-6)]Man(a1-6)]Man(b1-4)GlcNAc(b1-4)GlcNAc
# Method in brief: as §1
# [5] = target: Neu5Ac(a2-6)Gal(b1-4)GlcNAc(b1-2)[Neu5Ac(a2-6)Gal(b1-4)GlcNAc(b1-4)]Man(a1-3)[GlcNAc(b1-4)][Neu5Ac(a2-6)Gal(b1-4)GlcNAc(b1-4)Man(a1-6)]Man(b1-4)GlcNAc(b1-4)GlcNAc
# Method in brief: as §1
# [6] = target: Neu5Ac(a2-6)Gal(b1-4)GlcNAc(b1-2)[Neu5Ac(a2-6)Gal(b1-4)GlcNAc(b1-6)]Man(a1-6)[Neu5Ac(a2-6)Gal(b1-4)GlcNAc(b1-2)Man(a1-3)][GlcNAc(b1-4)]Man(b1-4)GlcNAc(b1-4)GlcNAc
# Method in brief: as §1
# [7] = target: Neu5Ac(a2-6)Gal(b1-4)GlcNAc(b1-3)Gal(b1-3)GlcNAc
# Method in brief: as §1
# [8] = target: Neu5Ac(a2-6)Gal(b1-4)GlcNAc(b1-3)Gal(b1-4)GlcNAc
# Method in brief: as §1
# [9] = target: Neu5Ac(a2-6)Gal(b1-4)GlcNAc(b1-3)Gal(b1-4)GlcNAc(b1-2)Man(a1-3)[Neu5Ac(a2-6)Gal(b1-4)GlcNAc(b1-3)Gal(b1-4)GlcNAc(b1-2)Man(a1-6)]GalNAc
# Method in brief: as §1
# [10] = target: Neu5Ac(a2-6)Gal(b1-4)GlcNAc(b1-3)Gal(b1-4)GlcNAc(b1-3)Gal(b1-4)GlcNAc
# Method in brief: as §1
# [11] = target: Neu5Ac(a2-6)Gal(b1-4)GlcNAc(b1-3)Gal(b1-4)GlcNAc(b1-3)Gal(b1-4)GlcNAc(b1-2)Man(a1-3)[Neu5Ac(a2-6)Gal(b1-4)GlcNAc(b1-3)Gal(b1-4)GlcNAc(b1-3)Gal(b1-4)GlcNAc(b1-2)Man(a1-6)]GalNAc
# Method in brief: as §1
# [12] = target: Neu5Ac(a2-6)Gal(b1-4)GlcNAc(b1-3)Gal(b1-4)GlcNAc(b1-3)GalNAc
# Method in brief: as §1
# [13] = target: Neu5Ac(a2-6)Gal(b1-4)GlcNAc(b1-3)Gal(b1-4)GlcNAc(b1-3)[Neu5Ac(a2-6)Gal(b1-4)GlcNAc(b1-3)Gal(b1-4)GlcNAc(b1-6)]GalNAc
# Method in brief: as §1
# [14] = target: Neu5Ac(a2-6)Gal(b1-4)GlcNAc(b1-3)Gal(b1-4)GlcNAc(b1-6)[Gal(b1-3)]GalNAc
# Method in brief: as §1
# [15] = target: Neu5Ac(a2-6)Gal(b1-4)GlcNAc(b1-3)Gal(b1-4)[Fuc(a1-3)]GlcNAc(b1-3)Gal(b1-4)[Fuc(a1-3)]GlcNAc
# Method in brief: as §1
# [16] = target: Neu5Ac(a2-6)Gal(b1-4)GlcNAc(b1-3)GalNAc
# Method in brief: as §1
# [17] = target: Neu5Ac(a2-6)Gal(b1-4)GlcNAc(b1-3)[Neu5Ac(a2-6)Gal(b1-4)GlcNAc(b1-6)]GalNAc
# Method in brief: as §1
# [18] = target: Neu5Ac(a2-6)Gal(b1-4)GlcNAc(b1-6)GalNAc
# Method in brief: as §1
# [19] = target: Neu5Ac(a2-6)Gal(b1-4)GlcNAc(b1-6)[Gal(b1-3)GlcNAc(b1-3)]Gal(b1-4)Glc
# Method in brief: as §1
# [20] = target: Neu5Ac(a2-6)Gal(b1-4)GlcNAc(b1-6)[Gal(b1-3)]GalNAc
# Method in brief: as §1
# [21] = target: Neu5Ac(a2-6)Gal(b1-4)GlcNAc6S
# Method in brief: as §1
# Neu5Ac(a2-6)GalNAc = target: Neu5Ac(a2-6)GalNAc
# Method in brief: as §1
# [22] = target: Neu5Ac(a2-6)GalNAc(b1-4)GlcNAc
# Method in brief: as §1
# [23] = target: Neu5Ac(a2-6)GalNAc(b1-4)GlcNAc6S
# Method in brief: as §1
# [24] = target: Neu5Ac(a2-6)GlcNAc(b1-4)GlcNAc
# Method in brief: as §1
# [25] = target: Neu5Ac(a2-6)GlcNAc(b1-4)GlcNAc(b1-4)GlcNAc
# Method in brief: as §1
# Neu5Ac(a2-8)Neu5Ac = target: Neu5Ac(a2-8)Neu5Ac
# Method in brief: as §1
# [26] = target: Neu5Ac(a2-8)Neu5Ac(a2-3)Gal(b1-3)GalNAc(b1-4)[Neu5Ac(a2-3)]Gal(b1-4)Glc
# Method in brief: as §1
binder,measurement,setting,value
B1,glycan array binding signal (z-score),[1],0.215
same,glycan array binding signal (z-score),[2],-0.426
same,glycan array binding signal (z-score),[3],-0.409
same,glycan array binding signal (z-score),[4],-0.098
same,glycan array binding signal (z-score),[5],0.31
same,glycan array binding signal (z-score),[6],-0.421
same,glycan array binding signal (z-score),[7],-0.18
same,glycan array binding signal (z-score),[8],-0.142
same,glycan array binding signal (z-score),[9],0.362
same,glycan array binding signal (z-score),[10],-0.579
same,glycan array binding signal (z-score),[11],1.28
same,glycan array binding signal (z-score),[12],-0.115
same,glycan array binding signal (z-score),[13],1.23
same,glycan array binding signal (z-score),[14],-0.066
same,glycan array binding signal (z-score),[15],0.034
same,glycan array binding signal (z-score),[16],-0.041
same,glycan array binding signal (z-score),[17],-0.053
same,glycan array binding signal (z-score),[18],0.332
same,glycan array binding signal (z-score),[19],0.075
same,glycan array binding signal (z-score),[20],0.228
same,glycan array binding signal (z-score),[21],-0.671
same,glycan array binding signal (z-score),Neu5Ac(a2-6)GalNAc,-0.628
same,glycan array binding signal (z-score),[22],-0.614
same,glycan array binding signal (z-score),[23],-0.028
same,glycan array binding signal (z-score),[24],-0.611
same,glycan array binding signal (z-score),[25],-0.526
same,glycan array binding signal (z-score),Neu5Ac(a2-8)Neu5Ac,-0.263
same,glycan array binding signal (z-score),[26],-0.693

# Reprinted at random: 2 entries already listed, in no set order.
binder,measurement,setting,value
B1,glycan array binding signal (z-score),[15],0.034
same,glycan array binding signal (z-score),[8],-0.142
